Source: PMC10055175
No constants are given. Whether binding was seen depends on the method and setting. Binding seen in cells or lysates may run through a third protein. Binding can be weak; no strength is given. Sequences can lack the tags named with a protein.

Molecular target: T1, CATSPER4-HA (mouse) (UniProt Q8BVN3)
T1 sequence: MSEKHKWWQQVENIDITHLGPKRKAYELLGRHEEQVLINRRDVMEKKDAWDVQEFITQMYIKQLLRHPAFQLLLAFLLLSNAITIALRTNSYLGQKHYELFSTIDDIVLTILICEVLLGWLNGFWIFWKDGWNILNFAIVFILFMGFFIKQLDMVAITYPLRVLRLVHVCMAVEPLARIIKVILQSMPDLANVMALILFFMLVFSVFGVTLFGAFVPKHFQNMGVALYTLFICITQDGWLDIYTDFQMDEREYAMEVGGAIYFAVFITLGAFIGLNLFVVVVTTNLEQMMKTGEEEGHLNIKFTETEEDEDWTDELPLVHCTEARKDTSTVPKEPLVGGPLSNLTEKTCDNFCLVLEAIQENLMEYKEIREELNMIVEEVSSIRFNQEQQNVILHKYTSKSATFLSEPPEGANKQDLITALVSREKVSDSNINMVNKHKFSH
Assay: co-IP; HA- and Flag-tagged constructs co-transfected into 293T cells, precipitated with anti-HA antibodies, blotted with anti-HA and anti-Flag antibodies

Substance: CATSPERθ-Flag (mouse)
- binding: binds
